# Several values for one entry are separate records, joined by “and”; a condition that tells them apart may be missing. Equal entries are not always repeated. Screen size: about 400,000 compounds; about 13,000 (3.2%) were called active. The inconclusive results got no clear call from the source; some entries with a clear call stand among them for comparison. Calls come from the whole dose curve; as a rule, active = well fitted cell-killing curve with a large enough effect; inconclusive = small, poorly fitted or top-dose-only effect, or effect the other way; inactive = flat fitted curve, though single readings scatter. A potency beside an inconclusive call is a rough fit, not a confirmed value.
# Assay: qHTS assay for MDR1-selective chemotherapeutics: Primary screen using the drug-selected MDR subline cells KB-V1; note: nearly all actives have a fitted effect of over 60% in size
# Conditions: KB-V1 MDR cells viability, CellTiter-Glo, 72 h; activity change, negative = cytotoxicity: at 46.1 µM (top of the series)
# How it was run: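 Cytotoxicity via CellTiter-Glo luminescence after 72 h compound exposure at 37 degrees C. Cells: drug-selected KB-V1 line, DMEM phenol-red free plus 10% FBS. Compounds tested at multiple concentrations; normalized data fitted to concentration-effect curves.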
# % is set by controls: 0 for no effect and ±100 for the full control effect; potency is the fitted concentration of half-maximal effect.
SMILES,"activity change, negative = cytotoxicity",Potency
O=C(CC(O)c1ccccc1)Nc1ccccn1 (configuration not stated),inactive: -19.7%,–
CCn1c2ccccc2c2nnc(SCCCn3c(=O)[nH]c4ccccc43)nc21,–,"inconclusive: 11.6 µM [cytotoxic, single point]"
O=C(O)c1ccc(-c2nc(-c3ccccc3)c(-c3ccccc3)[nH]2)cc1,–,"inconclusive: 29.1 µM [rising, single point]"
O=C(NC(=S)N1CCN(c2ccc(C(F)(F)F)cc2[N+](=O)[O-])CC1)c1cccs1,–,active: 14.6 µM
CCCn1c(N)c(N(CCOC)C(=O)c2cc3c(s2)CCC(CC)C3)c(=O)[nH]c1=O (configuration not stated),–,"inconclusive: 11.6 µM [rising, single point]"
COc1ccccc1CNC(=O)c1cc(-c2cc(Cl)ccc2C)n[nH]1,–,"inconclusive: 29.1 µM [cytotoxic, single point]"
CC(=O)N1c2ccccc2Sc2ccc3ccccc3c21,–,"inconclusive: 16.4 µM [cytotoxic, partial curve, poor fit]"
O=C(CNC(=S)N(Cc1ccccc1)Cc1ccccc1F)NCc1ccccc1,–,"inconclusive: 5.8 µM [cytotoxic, partial curve]"
CCc1ccc(S(=O)(=O)Nc2cccc(-c3ccc(N4CCOCC4)nn3)c2)cc1,inactive: -28.8%,–
CCOc1ccc(NS(=O)(=O)c2ccc3c4c(cccc24)C(=O)N3)cc1,inactive: -18.6%,–
CC(C)(C)c1ccc(C(=O)NCC(c2ccc(Cl)cc2)N2CCOCC2)cc1 (configuration not stated),–,"inconclusive: 23.1 µM [cytotoxic, single point]"
Cc1ccc(CN(Cc2ccco2)C(=O)COc2ccc(C)c(C)c2)cc1,–,"inconclusive: 29.1 µM [cytotoxic, single point]"
Cc1ccc(C)c(C(=O)NC2CC(C)(C)NC(C)(C)C2)c1,inactive: -7.8%,–
COc1ccc(CCN(C)C(=O)c2ccc(S(=O)(=O)Nc3ccccc3F)cc2)cc1OC,inactive: -16.2%,–
CC(=O)OC[C@]1(OC(C)=O)C[C@@]23CC[C@H]4[C@@](C)(CCC[C@@]4(C)C(=O)O)[C@@H]2CC[C@@H]1C3,inconclusive: -17.3%,–
O=[N+]([O-])c1ccc(-c2csc(Nc3ccccc3)[n+]2Cc2ccccc2)cc1,–,"inconclusive: 18.4 µM [cytotoxic, single point]"
C/C(CCC1CC(C)OC1=O)=N\NC(N)=O (configuration not stated),–,"inconclusive: 29.1 µM [rising, single point]"
O=C1CCCC(=O)C1C(=O)C1CCN(S(=O)(=O)c2ccccc2)CC1,–,"inconclusive: 18.4 µM [cytotoxic, single point]"
COc1ccccc1NC(=O)COc1ccc(-c2nn(C)c(=O)c3ccccc23)cc1,–,"active: 18.4 µM and inconclusive: 8.2 µM [cytotoxic, partial curve]"
CCCn1c(=O)c2c(nc3n2CCCN3Cc2ccccc2)n(C)c1=O,inactive: 1.61%,–
O=C(Nc1ccc2c(c1)CCC2)c1ccc(F)c(S(=O)(=O)N2CCOCC2)c1,–,active: 3.26 µM
CCc1ccc([C@@H]2C[C@H]3[C@@H](CN2S(=O)(=O)c2ccc(C)cc2)C(=O)C[C@@H](c2ccc(C)cc2)N3S(=O)(=O)c2ccc(C)cc2)cc1,–,"inconclusive: 11.6 µM [rising, partial curve, poor fit]"
Cc1cccc(CN2CCN(C3CN(Cc4cn(Cc5cc(C)cc(C)c5)nn4)S(=O)(=O)C3)CC2)c1 (configuration not stated),–,"inconclusive: 0.58 µM [cytotoxic, full curve, poor fit]"

SMILES,"activity change, negative = cytotoxicity",Potency
CCCCOc1ccc(S(=O)(=O)n2c(C)nc3ccccc32)cc1,–,"inconclusive: 18.4 µM [cytotoxic, partial curve]"
COc1ccc(OCc2cc(C(=O)NCCN3CCCc4ccccc43)no2)c(Cl)c1,–,"inconclusive: 23.1 µM [cytotoxic, single point]"
Cc1ccc(CCNC(=O)C2CC(c3cc(C(F)(F)F)cc(C(F)(F)F)c3)=NO2)cc1 (configuration not stated),–,"inconclusive: 23.1 µM [rising, single point]"
COc1cccc(-c2cnc3c(NC=O)cc(-c4ccc(N(C)C)cc4)cn23)c1,–,"inconclusive: 10.3 µM [cytotoxic, partial curve, poor fit]"
Cc1sc(-c2cc3c([nH]c2=O)CC(c2ccccc2)CC3=O)nc1-c1ccc(Cl)cc1 (configuration not stated),–,active: 0.82 µM
CCN(CC)c1ccc(/C=C/C(=O)C2C(=O)C=C(C)OC2=O)cc1 (configuration not stated),–,"inconclusive: 18.4 µM [cytotoxic, single point]"
Cc1cc(C)c2c(N)c3ccccc3nc2n1,–,"inconclusive: 20.6 µM [cytotoxic, single point]"
Cc1ccc(CCNC(=O)c2c(C)oc3ncn(CC(C)C)c(=O)c23)cc1,–,"inconclusive: 0.231 µM [cytotoxic, full curve]"
CC(C)CCNC(=O)C(c1ccco1)N(CC1CCCO1)C(=O)Cn1nnc2ccccc21 (configuration not stated),inactive: 1.54%,–
OCC1(Cc2cccc(C(F)(F)F)c2)CCN(Cc2cc(F)cc(F)c2)CC1,–,"inconclusive: 29.1 µM [cytotoxic, single point]"
CCN(C(=O)COc1nc(C)cc(C)c1C#N)c1ccccc1,–,"inconclusive: 11.6 µM [cytotoxic, partial curve, poor fit]"
COc1cccc(N2CCN(S(=O)(=O)c3cc(-c4cc(C)no4)ccc3C)CC2)c1,–,"inconclusive: 29.1 µM [rising, single point]"
Cc1ccc(-c2nn(-c3ccccc3Cl)cc2C(=O)NCC2CCCO2)cc1 (configuration not stated),–,"inconclusive: 8.2 µM [cytotoxic, partial curve]"
Cc1cc2c(SCC(=O)N3CCN(c4ccccc4)CC3)ncnc2s1,–,"inconclusive: 9.2 µM [cytotoxic, partial curve]"
CCc1cccc2c(C#N)cn(CCOc3ccccc3OC)c12,–,"inconclusive: 13 µM [cytotoxic, partial curve]"
O=C(COc1cccc2c1CCN(Cc1ccc(Br)cc1)C2=O)NCc1ccco1,–,active: 2.59 µM
COc1ccc(CN(C)C2CCCCC2)c(C)c1C,inactive: -19.5%,–
CCOc1ccc(-n2c(CCc3ccccc3)n[nH]c2=S)cc1,–,"inconclusive: 14.6 µM [cytotoxic, partial curve, poor fit]"
COCCCNC(=S)N1CCCN(c2nc3cc(C)ccc3cc2C#N)CC1,–,"inconclusive: 11.6 µM [cytotoxic, partial curve]"
O=c1c2cc(N3CCOCC3)ccc2[nH]c(=S)n1Cc1cccc(Cl)c1,–,"inconclusive: 29.1 µM [cytotoxic, single point]"
CSCCC(NS(=O)(=O)c1ccccc1F)C(=O)N1CCCCCCC1 (configuration not stated),inactive: -26.9%,–
CC1CC(C)CN(CCCNC(=O)CN2C(=O)CSc3ccc(S(=O)(=O)N4CCOCC4)cc32)C1 (configuration not stated),–,"inconclusive: 23.1 µM [rising, partial curve, poor fit]"
O=C(c1ccco1)N1CCN(C(=O)C(Sc2ccccc2)c2ccccc2)CC1 (configuration not stated),–,active: 20.6 µM

# Some of the entries above in another layout:
SMILES	activity change, negative = cytotoxicity	Potency
O=c1c2cc(N3CCOCC3)ccc2[nH]c(=S)n1Cc1cccc(Cl)c1	–	inconclusive: 29.1 µM [cytotoxic, single point]
CSCCC(NS(=O)(=O)c1ccccc1F)C(=O)N1CCCCCCC1 (configuration not stated)	inactive: -26.9%	–

# Continuation.

SMILES,"activity change, negative = cytotoxicity",Potency
CSc1cc(-c2ccc(Cl)cc2)n(Cc2ccccc2)c(=O)c1C#N,inactive: -14.4%,–
COc1ccc2c(c1)c(=O)oc1c(C)c(OC(C)C(=O)NCC3CCC(C(=O)O)CC3)ccc12 (configuration not stated),inactive: 14.5%,–
COc1ccc(C(O)c2nc3ccccc3n2C(C)C)cc1 (configuration not stated),–,"inconclusive: 29.1 µM [cytotoxic, single point]"
Cc1cc(C)cc(C(=O)Nc2nc3ccccc3[nH]2)c1,–,"inconclusive: 25.9 µM [cytotoxic, single point]"
CCOc1ccccc1Nc1cc(C)nc2ccc(C)cc12,–,active: 11.6 µM
O=C(Nc1nc2ccc(SC(F)F)cc2s1)c1ccc(NS(=O)(=O)c2ccc(F)c(F)c2)cc1,–,"inconclusive: 29.1 µM [cytotoxic, single point]"
CC(C)(C)c1cc(C(F)(F)F)nc(SCCCNC(=O)c2ccco2)n1,–,"inconclusive: 18.4 µM [cytotoxic, partial curve]"
CC(=O)SC(C[N+](=O)[O-])c1cn(C(C)=O)c2ccccc12 (configuration not stated),–,"inconclusive: 29.1 µM [cytotoxic, single point]"
COc1ccccc1CC(=O)Nc1ccc2[nH]ncc2c1,–,"inconclusive: 20.6 µM [rising, partial curve, poor fit]"
COc1ccc(N(CC(=O)N2CCN(c3ccc(F)cc3)CC2)S(=O)(=O)c2c(C)noc2C)cc1,–,inactive
CN1\C(=C/C=C/C=C/C=[N+](C)C)C(C)(C)c2ccccc21,–,active: 8.2 µM
CCn1c(-c2ccccc2Cl)nn(CC(=O)NCCc2ccccc2)c1=S,–,"inconclusive: 23.1 µM [cytotoxic, single point]"
COc1ccc2c(c1)C/C(=C\c1ccc(N(C)C)cc1)C2=O,inactive: -4.18%,–
Cn1nccc1NC(=O)Nc1cccc(Br)c1,–,"inconclusive: 7.31 µM [rising, partial curve, poor fit]"
COc1cccc2c1OCC(C(=O)NCc1ccc(Cl)cc1Cl)=C2,–,"inconclusive: 23.1 µM [cytotoxic, single point]"
CCCCNC(=O)CCCCC(=O)N/N=C/c1cccc(Cl)c1,–,"inconclusive: 20.6 µM [cytotoxic, single point]"
C=CCNCCOCCOc1ccc(Cl)cc1C(C)(C)C,–,"inconclusive: 20.6 µM [cytotoxic, single point]"
CCc1c(C)nc2[nH]nc(-c3ccccc3)n2c1=O,inactive: 3.16%,–
Cc1ccc(C(=O)C2CCN(CC(=O)Nc3ccccc3C)CC2)cc1,–,"inconclusive: 6.51 µM [cytotoxic, partial curve]"
COc1ccc(N=CC2CCCCC2=O)c([N+](=O)[O-])c1 (configuration not stated),–,"inconclusive: 18.4 µM [cytotoxic, single point]"
O=C(N/N=C/c1ccccc1F)NC1CCCCC1,inactive: -15.7%,–

# Reference: PubChem BioAssay AID1347076 (National Center for Advancing Translational Sciences (NCATS), 2019)
